The list shows a part of the results. Further columns of the screen follow, without active or inactive calls. Compounds called inactive in the main read-out are mostly missing here. The note in brackets gives the kind of curve behind each potency; many fits are weak.
Assay: qHTS Assay for Lipid Storage Modulators in Drosophila S3 Cells;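 on cell number change: cells counted by Cell Tracker Red CMTPX staining in the red channel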
Conditions: BODIPY lipid droplet fluorescence, 18-24 h; for cell number change: measured here: cell count max response, cells fed with added oleic acid
Procedure, shortened: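 Drosophila S3 cells loaded with oleic acid (400 uM, as added) and compounds at several concentrations; lipid droplets imaged by 488-nm laser-scanning cytometry, 500–530 nm intensity and object ratio to cell channel. Percent activity normalized to 20 uM Triacsin C.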

[1] = measured here: lipid fluorescence (Fed channel) AC50, cells fed with added oleic acid
[2] = measured here: cell number channel AC50, cells fed with added oleic acid

Structure (SMILES)	cell number change [%]	AC50 [1]	AC50 [2]
Cc1c(Br)c([N+](=O)[O-])nn1CC(=O)NCc1cccs1	-29.9	0.231 µM [falling, full curve, poor fit]	–
c1ccc2c(c1)OCC(c1csc3ncnc(N4CCCC4)c13)O2 (stereo unspecified)	47.5	20.6 µM [rising, partial curve]	16.4 µM [rising, partial curve, poor fit]
O=c1c(-c2cccc(Cl)c2)c[nH]n1-c1ccccc1	25.7	5.8 µM [rising, full curve]	–
O=C(Nc1ccccc1C(=O)N/N=C/c1ccccc1)c1ccco1	-7.14	–	–
CC(=O)C12CCCCC1CC1[C@@H]3CC(C)C4=CC(=O)CC[C@]4(C)C3CC[C@@]12C (stereo partly specified)	-8.33	29.1 µM [rising, single point]	–
Cc1c(/N=C/c2ccco2)n(Cc2ccccc2)c2ccccc12	-15.2	29.1 µM [falling, single point]	–
CCCC(=O)N1c2ccc(-c3csc(N)n3)cc2CC1C (stereo unspecified)	-11.7	–	–
O=C(CN1CCCCCC1)NN(Cc1ccccc1)c1ccccc1	35.8	–	29.1 µM [rising, single point]
COc1cccc(NC(=O)N2CCC(NC(=O)C(Cc3cccc(C)c3)NC(C)=O)CC2)c1 (stereo unspecified)	29.5	5.17 µM [falling, single point]	–
Cc1csc(NC(=O)CS(=O)(=O)Cc2ccccc2)n1	-6.37	6.51 µM [falling, single point]	–
COc1cc(CNC(C)c2ccccc2)cc(Br)c1OCc1ccccc1 (stereo unspecified)	-52.9	23.1 µM [falling, single point]	18.4 µM [falling, single point]
COc1ccc(NS(=O)(=O)c2cc(NC(=O)CCSc3ccccc3)ccc2OC)cc1	11.3	29.1 µM [rising, single point]	–
Cc1cc(Cl)ccc1NC(=O)/C=N/O	15.3	4.11 µM [rising, single point]	–
CCCCOC(=O)n1c(SCC(=O)N(CC)CC)nc2ccccc21	275	5.8 µM [rising, single point]	5.8 µM [rising, partial curve]
O=C(COc1ccccc1Cl)NC(=S)Nc1ccc(CN2CCOCC2)cc1	28.3	8.2 µM [rising, partial curve]	–
CC(C)n1c(SCC(=O)N2CCCCC2)nc2c1c(=O)n(C)c(=O)n2C	–	11.6 µM [falling, partial curve]	–
CC(=O)c1c(C)[nH]c(C(=O)Nc2ccc(C)c(S(=O)(=O)N(C)C)c2)c1C	2.85	–	6.51 µM [falling, single point]
COc1ccc(CCNC(=O)CSc2cn(Cc3ccccc3)c3ccccc23)cc1OC	-35.7	8.2 µM [falling, partial curve, poor fit]	8.2 µM [falling, partial curve]
O=C(CN1C(=O)NC(c2ccccc2)(c2ccccc2)C1=O)Nc1ccc2[nH]c(=O)[nH]c2c1	-44.9	–	29.1 µM [falling, single point]

Random excerpt: 2 entries already listed.
Structure (SMILES)	cell number change [%]	AC50 [1]	AC50 [2]
c1ccc2c(c1)OCC(c1csc3ncnc(N4CCCC4)c13)O2 (stereo unspecified)	47.5	20.6 µM [rising, partial curve]	16.4 µM [rising, partial curve, poor fit]
Cc1cc(Cl)ccc1NC(=O)/C=N/O	15.3	4.11 µM [rising, single point]	–

Additional results follow.

Structure (SMILES)	cell number change [%]	AC50 [1]	AC50 [2]
CCOC(=O)NC(=O)CN1C(=O)NC(C)(c2ccccc2)C1=O (stereo unspecified)	45.8	–	29.1 µM [rising, single point]
CCOC(=O)CNC(=O)Nc1nnc(-c2ccc(OCC)cc2)o1	-1.88	2.31 µM [rising, single point]	–
COc1ccccc1N(C)S(=O)(=O)c1ccc(C(=O)OCC(=O)Nc2ccc(C(N)=O)cc2)cc1	-13.6	10.3 µM [falling, partial curve, poor fit]	–
Cc1nc2c(Cl)cc(Cl)cc2[nH]1	-21.3	0.517 µM [falling, full curve]	–
COc1ccc(-n2nc(C(=O)NCC(=O)NCCc3ccc(OC)c(OC)c3)c3ccccc3c2=O)cc1Cl	-6.35	29.1 µM [falling, single point]	–
Cc1c(Cc2ccccc2)c(NCCN(C)C)n2c(nc3ccccc32)c1C#N	12.4	1.84 µM [rising, full curve, poor fit]	–
CC(C)C1(CCNC(=O)c2cccs2)CCOC(C)(C)C1 (stereo unspecified)	–	29.1 µM [falling, single point]	–
COc1ccc(CCNC(=O)Cn2ccc3c(OC)cccc3c2=O)cc1OC	-51.1	0.82 µM [falling, full curve]	16.4 µM [falling, partial curve, poor fit]
O=C(Nc1ccc(OC(F)(F)F)cc1)C1CCCN(S(=O)(=O)c2cccnc2)C1 (stereo unspecified)	-11.5	–	0.461 µM [falling, full curve, poor fit]
COc1ccccc1C(CNC(=O)c1cccc(S(=O)(=O)Nc2ccc(C)cc2)c1)N(C)C (stereo unspecified)	30.4	29.1 µM [rising, single point]	0.103 µM [rising, full curve, poor fit]
CC(CNC(=O)COc1ccc2c(c1)OCO2)c1ccccc1 (stereo unspecified)	-7.34	0.0291 µM [rising, full curve, poor fit]	–
COc1ccc(/C=C(/NC(=O)c2ccccc2)C(=O)NC2CCS(=O)(=O)C2)cc1 (stereo unspecified)	-9.18	0.651 µM [falling, full curve, poor fit]	–
C(=N\N1CCN(Cc2cccc3ccccc23)CC1)/c1cccs1	32	–	23.1 µM [rising, single point]
Cc1ccc(S(=O)(=O)c2c(COC(=O)c3ccc(Cl)cc3)c(-c3ccccc3)nn2C)cc1	-13.3	1.3 µM [rising, full curve, poor fit]	–
O=C(OCCN=C1NS(=O)(=O)c2ccccc21)C1CC(=O)N(c2ccc3ccccc3c2)C1 (stereo unspecified)	26.4	18.4 µM [rising, single point]	–
Clc1ccc(C2CC(c3ccccc3)Nc3ncnn32)cc1 (stereo unspecified)	51.3	0.366 µM [rising, full curve]	1.3 µM [rising, full curve]
O=C1CCCc2c1nc(-c1ccccc1)n2O	-1.02	–	–
CC(C)N1C(=O)N(c2cccc(Cl)c2)C(C)(O)CC1(C)C (stereo unspecified)	-4.65	1.3 µM [falling, full curve]	–

Entries shown so far with a furan ring, fused or not (2):
Structure (SMILES)	cell number change [%]	AC50 [1]	AC50 [2]
O=C(Nc1ccccc1C(=O)N/N=C/c1ccccc1)c1ccco1	-7.14	–	–
Cc1c(/N=C/c2ccco2)n(Cc2ccccc2)c2ccccc12	-15.2	29.1 µM [falling, single point]	–
